# Data taken from the supplement of paper PMC10849652.
# The chains behind the UniProt entries cited, without tags or fusion partners. Where a name states a change or a piece, a line headed by the entry shows the natural chain unless it says otherwise.
# UniProt P15056, whole entry, looked up: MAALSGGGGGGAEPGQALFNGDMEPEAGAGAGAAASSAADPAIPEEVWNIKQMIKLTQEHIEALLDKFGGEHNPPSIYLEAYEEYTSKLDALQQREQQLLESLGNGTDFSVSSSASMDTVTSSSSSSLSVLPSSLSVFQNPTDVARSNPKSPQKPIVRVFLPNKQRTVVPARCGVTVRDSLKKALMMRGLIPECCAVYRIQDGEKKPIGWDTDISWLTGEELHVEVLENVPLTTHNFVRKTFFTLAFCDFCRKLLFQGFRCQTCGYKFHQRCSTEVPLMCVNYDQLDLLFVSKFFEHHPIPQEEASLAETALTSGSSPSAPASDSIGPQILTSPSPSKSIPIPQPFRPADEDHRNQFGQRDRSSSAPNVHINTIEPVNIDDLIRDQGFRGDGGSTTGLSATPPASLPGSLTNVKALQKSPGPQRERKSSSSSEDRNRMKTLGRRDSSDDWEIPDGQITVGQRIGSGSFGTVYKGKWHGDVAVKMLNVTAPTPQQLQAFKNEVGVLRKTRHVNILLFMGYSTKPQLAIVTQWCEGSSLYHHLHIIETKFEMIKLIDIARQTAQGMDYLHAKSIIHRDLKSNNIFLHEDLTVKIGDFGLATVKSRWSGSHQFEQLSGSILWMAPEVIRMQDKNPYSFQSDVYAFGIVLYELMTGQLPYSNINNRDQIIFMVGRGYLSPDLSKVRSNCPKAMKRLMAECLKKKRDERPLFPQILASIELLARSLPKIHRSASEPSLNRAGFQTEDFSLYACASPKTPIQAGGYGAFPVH
# UniProt Q96G97: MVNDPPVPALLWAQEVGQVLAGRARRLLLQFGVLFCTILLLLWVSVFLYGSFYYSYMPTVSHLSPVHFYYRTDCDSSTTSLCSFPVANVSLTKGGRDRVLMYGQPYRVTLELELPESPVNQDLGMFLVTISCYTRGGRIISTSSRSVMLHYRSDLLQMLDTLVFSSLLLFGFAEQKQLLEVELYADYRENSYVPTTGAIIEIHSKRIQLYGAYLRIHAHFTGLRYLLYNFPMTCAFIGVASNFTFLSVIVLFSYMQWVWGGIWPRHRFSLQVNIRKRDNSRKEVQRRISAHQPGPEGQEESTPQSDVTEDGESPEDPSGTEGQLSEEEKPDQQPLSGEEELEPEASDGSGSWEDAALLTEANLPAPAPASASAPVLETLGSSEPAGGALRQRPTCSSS
# UniProt Q76KP1: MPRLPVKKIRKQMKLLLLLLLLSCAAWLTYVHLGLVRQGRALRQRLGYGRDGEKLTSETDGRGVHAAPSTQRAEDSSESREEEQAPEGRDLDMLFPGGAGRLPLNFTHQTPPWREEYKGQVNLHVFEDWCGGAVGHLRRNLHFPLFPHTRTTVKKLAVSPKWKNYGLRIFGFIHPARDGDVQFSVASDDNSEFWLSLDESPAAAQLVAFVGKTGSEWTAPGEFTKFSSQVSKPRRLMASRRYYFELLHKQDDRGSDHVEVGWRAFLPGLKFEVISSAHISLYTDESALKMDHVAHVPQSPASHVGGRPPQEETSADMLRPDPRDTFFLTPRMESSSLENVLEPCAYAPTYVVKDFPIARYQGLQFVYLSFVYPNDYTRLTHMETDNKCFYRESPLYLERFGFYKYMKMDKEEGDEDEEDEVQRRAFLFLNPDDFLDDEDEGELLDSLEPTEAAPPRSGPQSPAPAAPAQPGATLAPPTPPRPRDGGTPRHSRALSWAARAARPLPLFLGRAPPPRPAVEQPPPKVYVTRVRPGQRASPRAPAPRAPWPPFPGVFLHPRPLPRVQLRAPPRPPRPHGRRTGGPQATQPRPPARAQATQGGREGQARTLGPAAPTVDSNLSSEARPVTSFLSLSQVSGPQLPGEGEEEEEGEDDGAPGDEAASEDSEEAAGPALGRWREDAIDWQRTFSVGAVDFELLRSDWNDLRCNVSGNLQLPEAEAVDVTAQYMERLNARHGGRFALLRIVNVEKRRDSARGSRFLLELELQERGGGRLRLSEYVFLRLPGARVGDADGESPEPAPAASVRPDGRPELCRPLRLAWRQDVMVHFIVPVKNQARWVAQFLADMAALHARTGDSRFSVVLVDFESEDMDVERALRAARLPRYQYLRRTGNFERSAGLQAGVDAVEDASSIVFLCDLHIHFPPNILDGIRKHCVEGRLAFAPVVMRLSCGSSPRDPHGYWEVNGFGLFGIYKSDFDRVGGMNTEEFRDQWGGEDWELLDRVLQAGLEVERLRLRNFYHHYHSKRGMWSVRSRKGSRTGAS
# UniProt P13497: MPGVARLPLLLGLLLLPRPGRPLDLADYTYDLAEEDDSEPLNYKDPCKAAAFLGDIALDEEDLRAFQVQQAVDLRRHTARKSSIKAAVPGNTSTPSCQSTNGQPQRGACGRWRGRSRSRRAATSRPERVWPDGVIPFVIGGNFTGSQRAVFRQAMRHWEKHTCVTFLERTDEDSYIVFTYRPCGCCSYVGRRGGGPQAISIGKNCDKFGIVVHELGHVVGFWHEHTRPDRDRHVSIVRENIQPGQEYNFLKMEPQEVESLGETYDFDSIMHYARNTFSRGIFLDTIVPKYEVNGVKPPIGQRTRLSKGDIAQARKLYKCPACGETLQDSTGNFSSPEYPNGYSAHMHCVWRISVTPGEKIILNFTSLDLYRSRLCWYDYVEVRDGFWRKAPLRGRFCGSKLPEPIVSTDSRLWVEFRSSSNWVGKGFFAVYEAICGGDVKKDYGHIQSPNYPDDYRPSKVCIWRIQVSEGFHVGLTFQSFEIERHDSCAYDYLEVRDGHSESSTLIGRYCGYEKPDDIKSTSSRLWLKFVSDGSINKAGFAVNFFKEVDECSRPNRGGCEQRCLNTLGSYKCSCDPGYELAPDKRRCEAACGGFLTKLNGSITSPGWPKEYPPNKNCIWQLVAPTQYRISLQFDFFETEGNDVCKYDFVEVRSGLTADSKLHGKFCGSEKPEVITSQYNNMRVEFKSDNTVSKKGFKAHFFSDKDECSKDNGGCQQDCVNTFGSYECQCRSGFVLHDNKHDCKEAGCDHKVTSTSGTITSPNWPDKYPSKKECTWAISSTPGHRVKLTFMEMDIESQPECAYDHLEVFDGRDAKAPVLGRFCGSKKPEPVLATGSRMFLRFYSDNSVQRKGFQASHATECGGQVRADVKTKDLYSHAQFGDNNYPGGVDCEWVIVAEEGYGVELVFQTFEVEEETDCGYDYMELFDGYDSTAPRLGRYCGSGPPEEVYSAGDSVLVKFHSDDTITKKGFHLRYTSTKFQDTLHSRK
# UniProt Q9NWD9: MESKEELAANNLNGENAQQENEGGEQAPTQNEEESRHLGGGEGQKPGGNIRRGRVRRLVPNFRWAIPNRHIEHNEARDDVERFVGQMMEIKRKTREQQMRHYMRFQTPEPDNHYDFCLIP
# UniProt O60513: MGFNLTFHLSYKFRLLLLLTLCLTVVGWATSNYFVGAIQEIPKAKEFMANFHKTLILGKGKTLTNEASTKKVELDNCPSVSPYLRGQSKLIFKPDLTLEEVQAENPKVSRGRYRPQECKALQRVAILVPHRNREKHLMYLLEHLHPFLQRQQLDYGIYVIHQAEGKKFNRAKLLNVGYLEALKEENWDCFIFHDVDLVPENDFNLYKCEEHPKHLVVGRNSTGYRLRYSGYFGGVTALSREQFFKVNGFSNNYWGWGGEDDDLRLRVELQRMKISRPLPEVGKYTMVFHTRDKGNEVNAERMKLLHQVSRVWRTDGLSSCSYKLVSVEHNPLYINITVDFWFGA
# UniProt Q9BXY8: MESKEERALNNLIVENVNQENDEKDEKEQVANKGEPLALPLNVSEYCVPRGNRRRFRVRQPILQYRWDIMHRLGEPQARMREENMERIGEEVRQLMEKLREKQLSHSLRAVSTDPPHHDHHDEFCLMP
# UniProt A6H8Y1: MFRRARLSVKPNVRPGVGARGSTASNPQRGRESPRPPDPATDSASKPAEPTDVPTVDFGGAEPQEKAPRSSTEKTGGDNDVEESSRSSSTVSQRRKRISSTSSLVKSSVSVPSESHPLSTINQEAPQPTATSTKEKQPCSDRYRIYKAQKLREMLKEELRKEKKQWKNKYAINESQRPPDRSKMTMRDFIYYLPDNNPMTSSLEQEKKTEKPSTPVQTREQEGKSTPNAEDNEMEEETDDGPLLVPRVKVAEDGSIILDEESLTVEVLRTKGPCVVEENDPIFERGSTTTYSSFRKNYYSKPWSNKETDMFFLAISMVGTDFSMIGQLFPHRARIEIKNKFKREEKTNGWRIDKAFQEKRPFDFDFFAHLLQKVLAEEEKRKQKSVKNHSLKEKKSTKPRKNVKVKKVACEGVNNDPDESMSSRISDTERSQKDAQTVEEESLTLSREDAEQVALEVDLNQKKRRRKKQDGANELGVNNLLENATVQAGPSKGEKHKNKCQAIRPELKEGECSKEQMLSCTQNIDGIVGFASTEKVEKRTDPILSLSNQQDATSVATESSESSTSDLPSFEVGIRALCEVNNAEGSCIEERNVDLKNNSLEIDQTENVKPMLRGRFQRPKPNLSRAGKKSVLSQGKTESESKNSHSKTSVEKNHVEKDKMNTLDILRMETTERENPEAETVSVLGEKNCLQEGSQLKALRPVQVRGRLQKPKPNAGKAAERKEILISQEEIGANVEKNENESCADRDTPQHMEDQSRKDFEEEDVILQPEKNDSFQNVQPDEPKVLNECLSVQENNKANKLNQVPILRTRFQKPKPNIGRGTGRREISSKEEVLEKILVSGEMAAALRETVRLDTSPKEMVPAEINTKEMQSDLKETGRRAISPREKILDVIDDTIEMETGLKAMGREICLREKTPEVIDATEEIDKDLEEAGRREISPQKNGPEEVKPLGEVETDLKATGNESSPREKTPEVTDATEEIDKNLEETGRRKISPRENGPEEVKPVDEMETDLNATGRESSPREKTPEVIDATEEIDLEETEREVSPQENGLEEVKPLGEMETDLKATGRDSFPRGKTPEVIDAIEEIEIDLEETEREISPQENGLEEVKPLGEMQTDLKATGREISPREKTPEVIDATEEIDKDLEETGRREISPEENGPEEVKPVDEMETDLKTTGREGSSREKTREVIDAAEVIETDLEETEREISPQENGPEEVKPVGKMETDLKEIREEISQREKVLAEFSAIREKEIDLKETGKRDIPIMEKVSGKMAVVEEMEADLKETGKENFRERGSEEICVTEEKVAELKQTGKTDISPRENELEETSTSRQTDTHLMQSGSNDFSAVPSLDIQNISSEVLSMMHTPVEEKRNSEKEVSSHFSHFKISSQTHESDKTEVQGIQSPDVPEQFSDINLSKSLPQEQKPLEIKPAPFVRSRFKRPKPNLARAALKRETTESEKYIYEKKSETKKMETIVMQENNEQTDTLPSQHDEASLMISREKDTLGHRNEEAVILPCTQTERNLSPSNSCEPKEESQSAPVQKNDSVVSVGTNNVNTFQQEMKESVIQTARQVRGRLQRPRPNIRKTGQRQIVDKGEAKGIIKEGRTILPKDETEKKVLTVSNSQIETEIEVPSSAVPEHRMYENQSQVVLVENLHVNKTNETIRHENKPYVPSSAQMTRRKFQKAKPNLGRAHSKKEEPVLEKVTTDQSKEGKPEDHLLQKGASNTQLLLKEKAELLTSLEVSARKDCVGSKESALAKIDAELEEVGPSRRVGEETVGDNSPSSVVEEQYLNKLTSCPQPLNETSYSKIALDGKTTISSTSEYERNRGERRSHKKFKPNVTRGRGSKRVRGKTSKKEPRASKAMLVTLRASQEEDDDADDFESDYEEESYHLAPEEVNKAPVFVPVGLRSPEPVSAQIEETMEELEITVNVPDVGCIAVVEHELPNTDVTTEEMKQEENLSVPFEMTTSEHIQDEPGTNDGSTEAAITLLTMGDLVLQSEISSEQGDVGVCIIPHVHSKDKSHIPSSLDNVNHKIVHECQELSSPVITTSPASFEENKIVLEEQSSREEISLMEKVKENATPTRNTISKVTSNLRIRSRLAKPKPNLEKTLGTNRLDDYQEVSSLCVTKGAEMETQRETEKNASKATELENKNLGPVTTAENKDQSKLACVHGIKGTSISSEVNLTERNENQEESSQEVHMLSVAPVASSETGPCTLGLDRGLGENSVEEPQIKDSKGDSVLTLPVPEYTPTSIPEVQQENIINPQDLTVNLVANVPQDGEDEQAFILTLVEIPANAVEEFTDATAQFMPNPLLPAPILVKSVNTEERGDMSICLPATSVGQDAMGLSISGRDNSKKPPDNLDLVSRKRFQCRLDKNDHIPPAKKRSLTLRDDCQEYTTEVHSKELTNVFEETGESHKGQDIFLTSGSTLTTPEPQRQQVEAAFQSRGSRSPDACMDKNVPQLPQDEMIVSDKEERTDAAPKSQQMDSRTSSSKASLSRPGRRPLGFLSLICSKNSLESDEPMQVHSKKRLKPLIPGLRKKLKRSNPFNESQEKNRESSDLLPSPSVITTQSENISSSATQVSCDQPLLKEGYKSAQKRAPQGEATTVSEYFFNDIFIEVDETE
# UniProt Q96IK1: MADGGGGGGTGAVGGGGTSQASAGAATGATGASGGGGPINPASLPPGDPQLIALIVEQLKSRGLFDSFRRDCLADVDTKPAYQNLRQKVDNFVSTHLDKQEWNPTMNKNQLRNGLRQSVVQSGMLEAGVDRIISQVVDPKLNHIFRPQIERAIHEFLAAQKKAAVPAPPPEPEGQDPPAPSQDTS
# Some of the results follow.
# What was measured:
# Assay in all cases: log2 fold change, soluble protein after heating vs DMSO (PISA); higher = thermal stabilisation; K562 lysate, 10 uM; active = over 0.2 and 3.5 SD of the protein, either way, in both replicates (recomputed)
# [1] = compound: C=CC(=O)N1CCC[C@@H](n2nc(-c3ccc(Oc4ccccc4)cc3)c3c(N)ncnc32)C1 [ibrutinib]
# Procedure, shortened: (§1)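 Dounce homogenisation of K562 pellets in PBS pH 7.4 with 1 mM MgCl2 produced a crude extract, used at 1 mg/mL protein. Exposure to 10 μM compound lasted 30 min, and aliquots were then heated for 3 min across 48°C-58°C, pooled and brought to 0.5% NP-40 at 4°C. The supernatant after 21,000xg for 90 min was quantified by TMTpro 16plex LC-MS/MS with channel sums equalised. Duplicate values are given as log-two fold change in thermal stability relative to solvent controls.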
# [2] = compound: CC(=O)c1cnc2ccc(-c3cc(Cl)c(O)c(Cl)c3)nc2c1N[C@H]1CC[C@H](CN(C)C)CC1
# Procedure, shortened: as §1
# [3] = compound: CC(C)(C)Cn1c(N)nc2ccc(-c3[nH]c(C(C)(C)C)nc3-c3ccc(F)cc3)nc21 [ralimetinib]
# Procedure, shortened: as §1
# [4] = compound: CC(C)(O)CC(=O)NCCn1ccc2ncnc(Nc3ccc(Oc4cccc(C(F)(F)F)c4)c(Cl)c3)c21
# Procedure, shortened: as §1
# [5] = compound: CC(C)C1=C2N=C(C=C(N2N=C1)NCC3=CC=CC=C3)NCCCCCCN
# Procedure, shortened: as §1
# [6] = compound: CC1=C(C2=C(C=C1)C(=O)C3=CC=CC=C3N2CCCN)C
# Procedure, shortened: as §1
# [7] = compound: CC1=C(C=C(C=C1)NC(=O)C2=CC(=CC=C2)C(C)(C)C#N)NC3=CC4=C(C=C3)N=CN(C4=O)C
# Procedure, shortened: as §1
# [8] = compound: CC1=C(C=C(C=C1)NC(=O)C2=CC(=CC=C2)N(C)C)NC(=O)C3=CC=C(C=C3)O
# Procedure, shortened: as §1
# [9] = compound: CC1=CC=C(C=C1)SC2=C3C=C(SC3=CN=C2)C(=O)N
# Procedure, shortened: as §1
# [10] = compound: CC1=C(C(CC(=O)N1)C2=CC=C(C=C2)C(F)(F)F)C(=O)NC3=C(C=C4C(=C3)C=NN4)F
# Procedure, shortened: as §1
target,measurement,setting,value
BCAS3 isoform 8 (UniProt Q9H6U6),log2 fold change,[1],inactive: -0.002
same,log2 fold change,[2],inactive: 0.005
same,log2 fold change,[3],inactive: 0.049
same,log2 fold change,[4],inactive: 0.117
same,log2 fold change,[5],inactive: 0.061
same,log2 fold change,[6],inactive: -0.036
same,log2 fold change,[7],inactive: 0.07
same,log2 fold change,[8],inactive: -0.039
same,log2 fold change,[9],inactive: -0.012
BRF1 (UniProt Q92994),log2 fold change,[1],inactive: 0.047
same,log2 fold change,[3],inactive: -0.034
same,log2 fold change,[4],inactive: 0.016
same,log2 fold change,[5],inactive: -0.115
same,log2 fold change,[10],inactive: 0.285
same,log2 fold change,[6],inactive: 0.055
same,log2 fold change,[7],inactive: 0.03
same,log2 fold change,[8],inactive: -0.123
BAK1 (UniProt Q16611),log2 fold change,[2],inactive: 0.037
same,log2 fold change,[3],inactive: 0.073
same,log2 fold change,[4],inactive: -0.107
same,log2 fold change,[5],inactive: -0.016
same,log2 fold change,[6],inactive: -0.128
same,log2 fold change,[7],inactive: -0.122
same,log2 fold change,[8],inactive: 0.115
same,log2 fold change,[9],inactive: 0.094
BCL7A (UniProt Q4VC05),log2 fold change,[1],inactive: -0.057
same,log2 fold change,[2],inactive: -0.056
same,log2 fold change,[3],inactive: 0.012
same,log2 fold change,[4],inactive: -0.174
same,log2 fold change,[6],inactive: 0.039
same,log2 fold change,[7],inactive: 0.084
same,log2 fold change,[8],inactive: 0.075
same,log2 fold change,[9],inactive: 0.085
BRIP1 (UniProt Q9BX63),log2 fold change,[2],inactive: -0.001
same,log2 fold change,[3],inactive: 0.056
same,log2 fold change,[4],inactive: -0.064
same,log2 fold change,[5],inactive: -0.003
same,log2 fold change,[10],inactive: -0.043
same,log2 fold change,[6],inactive: -0.023
same,log2 fold change,[7],inactive: 0.026
same,log2 fold change,[8],inactive: 0.046
same,log2 fold change,[9],inactive: 0.021
BCL2 (UniProt P10415),log2 fold change,[1],inactive: 0.013
same,log2 fold change,[3],inactive: -0.049
same,log2 fold change,[4],inactive: -0.123
same,log2 fold change,[8],inactive: -0.275
BIN3 (UniProt Q9NQY0),log2 fold change,[1],inactive: 0.012
same,log2 fold change,[3],inactive: 0.087
same,log2 fold change,[4],inactive: 0.001
same,log2 fold change,[5],inactive: -0.17
same,log2 fold change,[6],inactive: 0.059
same,log2 fold change,[7],inactive: 0.194
same,log2 fold change,[8],inactive: -0.028
BTK isoform 2 (UniProt Q06187),log2 fold change,[2],inactive: 0.012
same,log2 fold change,[3],inactive: 0.014
same,log2 fold change,[4],inactive: 0.02
same,log2 fold change,[5],inactive: -0.01
same,log2 fold change,[10],inactive: 0.005
same,log2 fold change,[6],inactive: -0.032
same,log2 fold change,[7],inactive: 0.055
same,log2 fold change,[8],inactive: 0.042
same,log2 fold change,[9],inactive: -0.011
BLOC1S2 (UniProt Q6QNY1),log2 fold change,[1],inactive: 0.144
same,log2 fold change,[2],inactive: -0.038
same,log2 fold change,[5],inactive: 0.043
same,log2 fold change,[10],inactive: 0.001
same,log2 fold change,[6],inactive: 0.004
same,log2 fold change,[7],inactive: 0.166
same,log2 fold change,[9],inactive: -0.056
BRAF (UniProt P15056),log2 fold change,[1],inactive: 0.29
same,log2 fold change,[3],inactive: 0.008
same,log2 fold change,[5],inactive: 0.032
same,log2 fold change,[10],inactive: 0.004
same,log2 fold change,[6],inactive: -0.111
same,log2 fold change,[7],active: 0.65
same,log2 fold change,[9],inactive: -0.021
"BIRC6, A0A3B3IUB9",log2 fold change,[2],inactive: -0.077
same,log2 fold change,[3],inactive: -0.089
same,log2 fold change,[4],inactive: -0.4
same,log2 fold change,[5],inactive: 0.154
same,log2 fold change,[6],inactive: 0.034
same,log2 fold change,[7],inactive: -0.01
same,log2 fold change,[8],inactive: 0.014
same,log2 fold change,[9],inactive: 0.12
BSCL2 isoform 4 (UniProt Q96G97),log2 fold change,[2],inactive: -0.213
same,log2 fold change,[3],inactive: 0.167
same,log2 fold change,[4],inactive: 0.043
same,log2 fold change,[5],inactive: 0.027
same,log2 fold change,[10],inactive: -0.091
same,log2 fold change,[7],inactive: 0.015
same,log2 fold change,[8],inactive: -0.124
same,log2 fold change,[9],inactive: 0.023
"BEGAIN, A0A1B0GVM0",log2 fold change,[3],inactive: -0.082
same,log2 fold change,[4],inactive: 0.047
same,log2 fold change,[5],inactive: -0.023
same,log2 fold change,[10],inactive: -0.032
same,log2 fold change,[7],inactive: 0.064
same,log2 fold change,[8],inactive: -0.064
BPIFB1 (UniProt Q8TDL5),log2 fold change,[10],inactive: 2.15
BTBD2 (UniProt Q9BX70),log2 fold change,[5],inactive: -0.018
same,log2 fold change,[7],inactive: -0.077
BAP18 isoform 3 (UniProt Q8IXM2),log2 fold change,[2],inactive: 0.124
same,log2 fold change,[5],inactive: 0.305
same,log2 fold change,[10],inactive: 0.081
same,log2 fold change,[9],inactive: -0.157
BBS4 isoform 2 (UniProt Q96RK4),log2 fold change,[10],inactive: 0.03
same,log2 fold change,[6],inactive: 0.029
BIN1 (UniProt O00499),log2 fold change,[2],inactive: -0.005
same,log2 fold change,[5],inactive: -0.244
same,log2 fold change,[10],inactive: 0.009
same,log2 fold change,[9],inactive: 0.071
BNIP3L (UniProt O60238),log2 fold change,[7],inactive: -0.01
BTG3 isoform 2 (UniProt Q14201),log2 fold change,[5],inactive: 0.046
BBS7 (UniProt Q8IWZ6),log2 fold change,[3],inactive: 0.047
same,log2 fold change,[4],inactive: 0.015
same,log2 fold change,[5],inactive: -0.021
same,log2 fold change,[10],inactive: 0.077
same,log2 fold change,[6],inactive: 0.182
same,log2 fold change,[7],inactive: 0.181
same,log2 fold change,[8],inactive: -0.013
BPIFA1 (UniProt Q9NP55),log2 fold change,[3],inactive: 0.008
same,log2 fold change,[4],inactive: 0.901
same,log2 fold change,[5],inactive: 0.222
same,log2 fold change,[10],inactive: 1.85
same,log2 fold change,[6],inactive: 0.451
same,log2 fold change,[8],inactive: -0.062
BRWD1 (UniProt Q9NSI6),log2 fold change,[3],inactive: 0.118
same,log2 fold change,[4],inactive: -0.214
same,log2 fold change,[6],inactive: -0.28
same,log2 fold change,[7],inactive: -0.397
same,log2 fold change,[8],inactive: -0.08
BBX (UniProt Q8WY36),log2 fold change,[5],inactive: -0.036
same,log2 fold change,[10],inactive: -0.427
same,log2 fold change,[6],inactive: 0.128
same,log2 fold change,[7],inactive: 0.094
BAHCC1 (UniProt Q9P281),log2 fold change,[2],inactive: -0.045
same,log2 fold change,[5],inactive: -0.018
same,log2 fold change,[10],inactive: -0.114
same,log2 fold change,[6],inactive: -0.008
same,log2 fold change,[7],inactive: 0.013
same,log2 fold change,[9],inactive: 0.074
BRMS1L (UniProt Q5PSV4),log2 fold change,[2],inactive: 0.013
same,log2 fold change,[9],inactive: 0.012
BAIAP2 isoform 6 (UniProt Q9UQB8),log2 fold change,[7],inactive: -0.02
BMT2 (UniProt Q1RMZ1),log2 fold change,[10],inactive: 0.586
BPTF (UniProt F5GXF5),log2 fold change,[3],inactive: 0.112
same,log2 fold change,[4],inactive: -0.174
same,log2 fold change,[5],inactive: 0.002
same,log2 fold change,[8],inactive: -0.016
B4GALNT4 (UniProt Q76KP1),log2 fold change,[7],inactive: -0.125
BICRAL (UniProt Q6AI39),log2 fold change,[3],inactive: 0.102
same,log2 fold change,[4],inactive: 0
same,log2 fold change,[8],inactive: 0.089
BHLHE40 (UniProt O14503),log2 fold change,[3],inactive: 0.01
same,log2 fold change,[4],inactive: -0.052
same,log2 fold change,[5],inactive: 0.009
same,log2 fold change,[7],inactive: -0.097
same,log2 fold change,[8],inactive: 0.006
BCORL1 isoform 3 (UniProt Q5H9F3),log2 fold change,[3],inactive: -0.07
same,log2 fold change,[4],inactive: 0.075
same,log2 fold change,[5],inactive: 0.074
same,log2 fold change,[6],inactive: 0.001
same,log2 fold change,[7],inactive: -0.321
same,log2 fold change,[8],inactive: -0.01
BTG1 (UniProt P62324),log2 fold change,[7],inactive: -0.119
B4GALT7 (UniProt Q9UBV7),log2 fold change,[5],inactive: 0.011
same,log2 fold change,[7],inactive: 0.015
BANP isoform 7 (UniProt Q8N9N5),log2 fold change,[5],inactive: -0.186
BLVRA (UniProt C9J1E1),log2 fold change,[2],inactive: 0.054
same,log2 fold change,[10],inactive: 0.147
same,log2 fold change,[9],inactive: 0.057
BAG6 (UniProt F6WML8),log2 fold change,[3],inactive: 0.042
same,log2 fold change,[4],inactive: -0.109
same,log2 fold change,[5],inactive: 0.084
same,log2 fold change,[8],inactive: -0.059
BMP1 (UniProt P13497),log2 fold change,[3],inactive: 0.453
same,log2 fold change,[4],inactive: 0.027
same,log2 fold change,[8],inactive: -0.322
BEX4 (UniProt Q9NWD9),log2 fold change,[3],inactive: -0.024
same,log2 fold change,[4],inactive: 0.109
same,log2 fold change,[5],inactive: 0.003
same,log2 fold change,[10],inactive: 0.038
same,log2 fold change,[6],inactive: 0.013
same,log2 fold change,[7],inactive: 0.068
same,log2 fold change,[8],inactive: 0.043
B4GALT4 (UniProt O60513),log2 fold change,[5],inactive: 0.048
same,log2 fold change,[6],inactive: -0.006
BRD9 (UniProt Q9H8M2),log2 fold change,[3],inactive: 0.009
same,log2 fold change,[4],inactive: 0.041
same,log2 fold change,[5],inactive: -0.064
same,log2 fold change,[10],inactive: 0.036
same,log2 fold change,[8],inactive: -0.002
BEX2 isoform 2 (UniProt Q9BXY8),log2 fold change,[2],inactive: -0.107
same,log2 fold change,[9],inactive: -0.112
BDP1 (UniProt A6H8Y1),log2 fold change,[3],inactive: 0.117
same,log2 fold change,[4],inactive: 0.021
same,log2 fold change,[7],inactive: 0.008
same,log2 fold change,[8],inactive: -0.14
BTBD9 (UniProt Q96Q07),log2 fold change,[2],inactive: -0.266
same,log2 fold change,[5],inactive: -0.256
same,log2 fold change,[9],inactive: 0.226
BOD1 (UniProt Q96IK1),log2 fold change,[2],inactive: -0.137
same,log2 fold change,[3],inactive: 0.042
same,log2 fold change,[4],inactive: -0.014
same,log2 fold change,[6],inactive: -0.276
same,log2 fold change,[7],inactive: -0.002
same,log2 fold change,[8],inactive: -0.002
same,log2 fold change,[9],inactive: 0.043

# Some of the entries above, reformatted:
target	measurement	setting	value
BAK1 (UniProt Q16611)	log2 fold change	[2]	inactive: 0.037
BRAF (UniProt P15056)	log2 fold change	[5]	inactive: 0.032
BNIP3L (UniProt O60238)	log2 fold change	[7]	inactive: -0.01
BHLHE40 (UniProt O14503)	log2 fold change	[5]	inactive: 0.009

# 2 consecutive entries already listed, for reference:
target,measurement,setting,value
BRAF (UniProt P15056),log2 fold change,[5],inactive: 0.032
same,log2 fold change,[10],inactive: 0.004
